This passage reports binding results from article PMC6857588.

By UniProt entry, the sequences of proteins in these tests, tags left out. Where a name states a change or a piece, a line headed by the entry shows the natural chain unless it says otherwise. Chains listed by the source or under a name are the forms on record and can include a tag or linker.
wild-type NMY-2 HMM fragment (heavy chain alone) (G5EBY3, form named): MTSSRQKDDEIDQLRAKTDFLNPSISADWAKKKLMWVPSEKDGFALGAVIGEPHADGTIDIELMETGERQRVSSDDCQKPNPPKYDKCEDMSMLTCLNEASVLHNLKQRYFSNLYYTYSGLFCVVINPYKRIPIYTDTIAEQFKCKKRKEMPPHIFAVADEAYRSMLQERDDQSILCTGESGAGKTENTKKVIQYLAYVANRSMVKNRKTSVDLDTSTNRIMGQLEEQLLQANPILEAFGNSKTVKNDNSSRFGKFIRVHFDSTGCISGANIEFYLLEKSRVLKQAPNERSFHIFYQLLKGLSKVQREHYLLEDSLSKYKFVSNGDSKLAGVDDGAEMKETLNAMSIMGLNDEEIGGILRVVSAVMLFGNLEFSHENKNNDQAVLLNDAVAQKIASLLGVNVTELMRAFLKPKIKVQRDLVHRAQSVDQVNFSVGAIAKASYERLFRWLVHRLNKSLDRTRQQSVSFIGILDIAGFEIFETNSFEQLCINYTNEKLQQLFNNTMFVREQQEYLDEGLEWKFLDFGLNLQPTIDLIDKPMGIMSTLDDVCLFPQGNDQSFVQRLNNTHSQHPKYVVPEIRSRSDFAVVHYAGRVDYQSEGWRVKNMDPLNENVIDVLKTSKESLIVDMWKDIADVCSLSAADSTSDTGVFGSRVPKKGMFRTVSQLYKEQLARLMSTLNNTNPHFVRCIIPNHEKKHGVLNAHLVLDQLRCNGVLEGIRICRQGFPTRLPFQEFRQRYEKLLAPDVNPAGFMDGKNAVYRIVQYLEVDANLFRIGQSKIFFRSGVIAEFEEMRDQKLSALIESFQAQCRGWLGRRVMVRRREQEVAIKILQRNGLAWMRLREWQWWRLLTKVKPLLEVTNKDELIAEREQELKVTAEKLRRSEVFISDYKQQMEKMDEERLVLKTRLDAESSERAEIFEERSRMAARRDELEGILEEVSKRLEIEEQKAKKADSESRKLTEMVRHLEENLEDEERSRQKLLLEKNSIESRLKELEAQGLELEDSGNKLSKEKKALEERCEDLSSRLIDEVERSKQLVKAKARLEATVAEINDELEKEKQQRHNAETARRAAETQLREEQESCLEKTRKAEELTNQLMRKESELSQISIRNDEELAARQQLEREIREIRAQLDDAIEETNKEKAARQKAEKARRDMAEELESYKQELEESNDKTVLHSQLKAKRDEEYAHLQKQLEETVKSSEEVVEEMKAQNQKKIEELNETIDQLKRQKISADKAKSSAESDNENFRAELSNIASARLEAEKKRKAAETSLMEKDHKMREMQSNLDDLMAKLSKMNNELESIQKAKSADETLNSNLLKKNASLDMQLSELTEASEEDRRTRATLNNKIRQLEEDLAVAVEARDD
wild-type NMY-2 S1 fragment (heavy chain alone) (G5EBY3, form named): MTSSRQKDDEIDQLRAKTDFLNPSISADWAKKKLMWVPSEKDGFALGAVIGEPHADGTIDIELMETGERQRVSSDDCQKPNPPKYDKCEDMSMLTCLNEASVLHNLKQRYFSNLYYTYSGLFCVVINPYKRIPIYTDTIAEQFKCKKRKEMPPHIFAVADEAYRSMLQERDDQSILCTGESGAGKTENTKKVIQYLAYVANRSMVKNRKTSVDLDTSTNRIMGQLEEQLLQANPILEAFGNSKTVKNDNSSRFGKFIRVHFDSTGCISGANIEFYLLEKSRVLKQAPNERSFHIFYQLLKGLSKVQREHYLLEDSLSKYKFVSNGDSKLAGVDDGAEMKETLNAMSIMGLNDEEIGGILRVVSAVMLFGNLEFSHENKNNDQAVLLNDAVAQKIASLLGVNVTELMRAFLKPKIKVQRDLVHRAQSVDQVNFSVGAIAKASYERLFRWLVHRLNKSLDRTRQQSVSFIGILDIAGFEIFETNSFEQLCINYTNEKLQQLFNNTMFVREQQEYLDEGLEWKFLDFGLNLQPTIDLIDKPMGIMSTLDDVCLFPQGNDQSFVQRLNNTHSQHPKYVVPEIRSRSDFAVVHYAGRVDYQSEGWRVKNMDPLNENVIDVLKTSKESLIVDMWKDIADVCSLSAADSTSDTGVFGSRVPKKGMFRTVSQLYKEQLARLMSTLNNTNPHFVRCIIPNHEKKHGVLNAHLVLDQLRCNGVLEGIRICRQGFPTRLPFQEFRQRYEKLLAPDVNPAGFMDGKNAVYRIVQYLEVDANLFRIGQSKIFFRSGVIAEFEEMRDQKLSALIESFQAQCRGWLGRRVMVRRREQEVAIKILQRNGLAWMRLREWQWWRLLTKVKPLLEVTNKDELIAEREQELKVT
NMY-2 S1 fragment S251A (heavy chain alone) (G5EBY3, form named): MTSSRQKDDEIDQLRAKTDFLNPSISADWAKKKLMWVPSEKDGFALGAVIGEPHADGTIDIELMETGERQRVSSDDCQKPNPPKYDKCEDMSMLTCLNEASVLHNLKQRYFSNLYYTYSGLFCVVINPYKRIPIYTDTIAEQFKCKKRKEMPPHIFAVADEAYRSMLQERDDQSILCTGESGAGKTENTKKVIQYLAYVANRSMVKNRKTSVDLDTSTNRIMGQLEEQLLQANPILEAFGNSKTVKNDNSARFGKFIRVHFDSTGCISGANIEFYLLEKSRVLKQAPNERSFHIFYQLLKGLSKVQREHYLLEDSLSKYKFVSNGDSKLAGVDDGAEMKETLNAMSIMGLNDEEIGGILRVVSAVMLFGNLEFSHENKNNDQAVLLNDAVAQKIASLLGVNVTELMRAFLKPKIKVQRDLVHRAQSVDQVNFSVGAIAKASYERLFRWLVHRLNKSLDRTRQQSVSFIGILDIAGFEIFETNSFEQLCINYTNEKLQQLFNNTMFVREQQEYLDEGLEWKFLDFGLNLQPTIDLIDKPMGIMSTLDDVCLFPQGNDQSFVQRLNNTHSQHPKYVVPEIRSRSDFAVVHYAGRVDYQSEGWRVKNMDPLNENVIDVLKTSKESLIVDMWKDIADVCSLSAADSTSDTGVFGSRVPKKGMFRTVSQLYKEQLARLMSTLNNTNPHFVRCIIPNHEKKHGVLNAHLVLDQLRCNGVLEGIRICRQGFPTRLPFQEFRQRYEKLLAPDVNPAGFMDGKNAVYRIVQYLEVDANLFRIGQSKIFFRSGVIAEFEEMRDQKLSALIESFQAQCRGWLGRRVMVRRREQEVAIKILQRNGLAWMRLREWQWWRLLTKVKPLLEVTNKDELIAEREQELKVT
NMY-2 S1 fragment R252A (heavy chain alone) (G5EBY3, form named): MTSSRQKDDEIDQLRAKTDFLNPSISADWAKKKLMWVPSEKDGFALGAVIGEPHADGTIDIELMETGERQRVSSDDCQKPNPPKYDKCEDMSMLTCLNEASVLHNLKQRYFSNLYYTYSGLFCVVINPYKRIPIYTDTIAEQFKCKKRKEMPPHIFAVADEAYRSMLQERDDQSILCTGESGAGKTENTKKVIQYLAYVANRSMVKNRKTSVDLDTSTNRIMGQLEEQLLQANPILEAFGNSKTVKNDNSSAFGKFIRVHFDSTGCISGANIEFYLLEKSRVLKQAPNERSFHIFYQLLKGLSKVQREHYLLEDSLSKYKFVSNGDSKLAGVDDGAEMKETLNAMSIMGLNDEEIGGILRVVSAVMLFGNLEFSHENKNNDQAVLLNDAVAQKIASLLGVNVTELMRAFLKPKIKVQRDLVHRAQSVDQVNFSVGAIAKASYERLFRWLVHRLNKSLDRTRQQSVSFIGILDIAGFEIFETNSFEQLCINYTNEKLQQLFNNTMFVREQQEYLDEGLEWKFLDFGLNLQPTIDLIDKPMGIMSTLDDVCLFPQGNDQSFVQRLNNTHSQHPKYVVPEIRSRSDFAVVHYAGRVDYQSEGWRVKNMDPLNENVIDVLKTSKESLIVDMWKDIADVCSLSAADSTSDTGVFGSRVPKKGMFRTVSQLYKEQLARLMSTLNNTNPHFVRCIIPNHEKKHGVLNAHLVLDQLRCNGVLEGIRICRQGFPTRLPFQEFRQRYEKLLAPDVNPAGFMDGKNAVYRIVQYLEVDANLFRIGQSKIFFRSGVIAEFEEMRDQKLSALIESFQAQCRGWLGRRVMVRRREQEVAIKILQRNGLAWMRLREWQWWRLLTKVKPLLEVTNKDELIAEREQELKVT

The target of assay [1] is T1, myosin essential light chain MLC-5 (C. elegans) (UniProt Q9XVI9).
T1 sequence: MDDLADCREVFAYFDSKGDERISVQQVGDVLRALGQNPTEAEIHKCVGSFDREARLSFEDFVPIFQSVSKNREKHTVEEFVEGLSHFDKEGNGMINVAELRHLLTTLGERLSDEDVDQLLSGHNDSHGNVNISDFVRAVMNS
In words: co-purification (tandem Strep-Tactin and Ni-NTA affinity chromatography); co-expressed in Sf21 cells; lysate on Strep-Tactin Sepharose (StrepTagII on MLC-4 and MLC-5), eluate on Ni-NTA beads (6xHis on the NMY-2 HMM fragment), 500 mM NaCl.

For assay [2], the target named is T2, myosin regulatory light chain MLC-4 (C. elegans) (UniProt Q09510).
T2 sequence: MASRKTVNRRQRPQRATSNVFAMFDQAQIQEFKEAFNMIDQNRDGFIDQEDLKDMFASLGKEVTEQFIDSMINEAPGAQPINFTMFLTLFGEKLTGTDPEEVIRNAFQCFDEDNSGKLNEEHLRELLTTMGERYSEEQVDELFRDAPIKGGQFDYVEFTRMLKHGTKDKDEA
Described as above.

In assay [3] the target is T1, myosin essential light chain MLC-5 (C. elegans). The assay can be described thus: co-purification (Strep-Tactin affinity chromatography, then SEC); co-expressed in Sf21 cells; lysate on Strep-Tactin Sepharose (StrepTagII on MLC-4 and MLC-5), washes with 500 mM NaCl, then Superose 6 increase 10/300.
Assay [4] deals with T2, myosin regulatory light chain MLC-4 (C. elegans). Described as above.

No constants are given. Whether binding was seen depends on the method and setting. Some entries that bind do so weakly or less than the wild type.

“wild-type NMY-2 HMM fragment (heavy chain alone) (from UniProt G5EBY3 1-1364) (domain or fragment)”: the binding result in assay [1] and in assay [2] was “binds” each time.

Take “wild-type NMY-2 S1 fragment (heavy chain alone) (from UniProt G5EBY3 1-874) (domain or fragment)”: the binding result in assay [3] and in assay [4] was “binds” throughout.

As for “NMY-2 S1 fragment S251A (heavy chain alone) (from UniProt G5EBY3 1-874) (domain or fragment)”, the binding result in assay [3] and in assay [4] was “binds” in each case.

On to “NMY-2 S1 fragment R252A (heavy chain alone) (from UniProt G5EBY3 1-874) (domain or fragment)”, for which the binding entry in assay [3] and in assay [4] was “binds” in each case.
